Measurements from the supplement of paper PMC7125110.
± gives the standard error. The uncertainty is large for many entries.

B1: glmS ribozyme (parent)
chain: AUAAAAGCGCCAGAACUACAGAAAUGUAGUUGACGAGGAGGAGGUUUAUCGAAUUUUCGGCGGAUGCCUCCAAA

Variants of: B1
Experiment: kcat; higher = faster cleavage; RNA array
Details: with glucosamine-6-phosphate
How it was run: (§1)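 kcat and KM were obtained from weighted Michaelis–Menten fits across concentrations of kobs values. Those came from one- or two-exponential decay fits to per-tile medians normalised to baseline and to non-cleaving reference variants. The variants were barcoded ribozymes transcribed in situ by E. coli RNA polymerase on sequenced MiSeq chips and tracked through a hybridised Cy3 probe at 37 °C, with 40 μM to 10 mM glucosamine-6-phosphate in HEPES/KCl/Mg(OAc)2 buffer flowed in.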

| Variant | kcat |
| --- | --- |
| U30G G32C | 0.000158 ± 2.5e-05 s⁻¹ |
| U30G U55G C71U | 0.00602 ± 0.0031 s⁻¹ |
| U31A A64G | 0.00695 ± 0.0038 s⁻¹ |
| U31A C50G | 4.08e-05 ± 3.7e-05 s⁻¹ |
| U31A C70A | 0.000251 ± 0.00014 s⁻¹ |
| U31A G60U | < 1e-05 s⁻¹ |
| U31A U56A | 0.0044 ± 0.0036 s⁻¹ |
| U31A U69C | 0.00454 ± 0.0045 s⁻¹ |
| U31C C58U | 2.26e-05 ± 7.2e-06 s⁻¹ |
| U31C G44A | 3e-05 ± 1.6e-05 s⁻¹ |
| U31G A42G | 0.0163 ± 0.0088 s⁻¹ |
| U31G A53G | 0.0102 ± 0.0085 s⁻¹ |
| U31G G32U | 0.00268 ± 0.0014 s⁻¹ |
| U31G G38U A53G C68A C71A | 4.21e-05 ± 3.9e-05 s⁻¹ |
| U31G U65G | 0.00259 ± 0.00018 s⁻¹ |
| G32A C70U | 0.00385 ± 0.0022 s⁻¹ |
| G32A U47A | 0.00357 ± 0.0028 s⁻¹ |
| G32A U54A | 0.00386 ± 0.001 s⁻¹ |
| G32A U57C | 2.67e-05 ± 1.4e-05 s⁻¹ |
| G32C C34U U47A U54G C61G C70G | 2.92e-05 ± 1.5e-05 s⁻¹ |

| Variant | kcat |
| --- | --- |
| G32C C68A | 2.72e-05 ± 1.8e-05 s⁻¹ |
| G32C C68U | 1.25e-05 ± 1.1e-06 s⁻¹ |
| G32C C70G | 2.36e-05 ± 1.4e-05 s⁻¹ |
| G32C C71U | 0.000245 ± 0.00018 s⁻¹ |
| G32C U56A | 7.63e-05 ± 4.4e-05 s⁻¹ |
| G32U U47A | 0.000688 ± 0.00026 s⁻¹ |
| G32U U54G | 0.00181 ± 0.0011 s⁻¹ |
| A33C C50A | < 1e-05 s⁻¹ |
| A33C C50G | 2.17e-05 ± 2e-05 s⁻¹ |
| A33C U55C | < 1e-05 s⁻¹ |
| A33G A52G | < 1e-05 s⁻¹ |
| A33G C61G | 2.02e-05 ± 1.8e-05 s⁻¹ |
| A33G U69G | 4.47e-05 ± 2.2e-05 s⁻¹ |
| A33U A42G | 0.000108 ± 7.3e-06 s⁻¹ |
| C34A C50G | 3.35e-05 ± 1.8e-05 s⁻¹ |
| C34A C50G C71U | 9.44e-05 ± 5e-05 s⁻¹ |
| C34G G35U | 2.39e-05 ± 1.4e-05 s⁻¹ |
| C34G U69G | 4.85e-05 ± 2.5e-05 s⁻¹ |
| C34U C50G | 8.9e-05 ± 5.4e-05 s⁻¹ |
| C34U C58U | < 1e-05 s⁻¹ |

A second format for part of the listing above:
Variant,kcat
G32U U47A,0.000688 ± 0.00026 s⁻¹
G32U U54G,0.00181 ± 0.0011 s⁻¹
A33C C50A,< 1e-05 s⁻¹
A33C C50G,2.17e-05 ± 2e-05 s⁻¹
A33C U55C,< 1e-05 s⁻¹
A33G A52G,< 1e-05 s⁻¹
A33G C61G,2.02e-05 ± 1.8e-05 s⁻¹

(continued)

| Variant | kcat |
| --- | --- |
| G35A A64G C70G | 3.33e-05 ± 1.9e-05 s⁻¹ |
| G35C G40U | < 1e-05 s⁻¹ |
| G35U A52G C71G | < 1e-05 s⁻¹ |
| A36C A52G G66U C70U | 1.1e-05 ± 7e-06 s⁻¹ |
| A36C C70G | 3.8e-05 ± 2.7e-05 s⁻¹ |
| A36C G38U C68G | 2.64e-05 ± 2e-05 s⁻¹ |
| A36C G59A | < 1e-05 s⁻¹ |
| A36G C50A C67U | 2.36e-05 ± 1.2e-05 s⁻¹ |
| A36U G38U | < 1e-05 s⁻¹ |
| A36U U55A | < 1e-05 s⁻¹ |
| G37A C50G U54C | 3.67e-05 ± 1.9e-05 s⁻¹ |
| G37C A39G | 0.000123 ± 9.4e-05 s⁻¹ |
| G37C A39U | 1.36e-05 ± 1e-06 s⁻¹ |
| G37C C68G | 1.8e-05 ± 3.8e-06 s⁻¹ |
| G37C U55G | 8.65e-05 ± 4.8e-05 s⁻¹ |
| G37U A52U G60U C70G | 1.37e-05 ± 8.1e-06 s⁻¹ |
| G37U C50G | 2.87e-05 ± 1.5e-05 s⁻¹ |
| G37U C58G | 1.4e-05 ± 8.9e-06 s⁻¹ |
| G38A A52G C68G | 3.67e-05 ± 2.2e-05 s⁻¹ |

Variants of: B1
Experiment: KM; higher = weaker cofactor use; RNA array
Details: with glucosamine-6-phosphate
How it was run: as §1

| Variant | KM |
| --- | --- |
| U30G G32C | 1.31 ± 0.85 mM |
| U30G U55G C71U | 1.69 ± 1.4 mM |
| U31A A64G | 1.05 ± 0.81 mM |
| U31A C70A | 7.49 ± 7 mM |
| U31G A42G | 2.25 ± 1.8 mM |
| U31G G32U | 3.15 ± 2.4 mM |
| U31G U65G | 4.14 ± 0.44 mM |
| G32A C70U | 3.52 ± 2.6 mM |
| G32A U54A | 3.52 ± 1.3 mM |
| G32C C68U | 1.35 ± 0.62 mM |
| G32U U47A | 3.85 ± 2.2 mM |
| G32U U54G | 10.8 ± 10 mM |
| A33U A42G | 2 ± 0.35 mM |
| G35A A64G C70G | 3.55 ± 3.4 mM |
| G37C A39U | 1.23 ± 0.45 mM |
| G37C U55G | 13.9 ± 13 mM |

Variants of: B1
Experiment: self-cleavage kobs at 640 uM GlcN6P; higher = faster cleavage; RNA array
Details: with glucosamine-6-phosphate
How it was run: as §1

| Variant | self-cleavage kobs at 640 uM GlcN6P |
| --- | --- |
| U30G G32C | 3.68e-05 ± 1.9e-05 s⁻¹ |
| U31A C70A | 6.75e-05 ± 3.5e-05 s⁻¹ |
| G32C C34U U47A U54G C61G C70G | 3.48e-05 ± 2.8e-05 s⁻¹ |
| G32C C71U | 3.52e-05 ± 1.9e-05 s⁻¹ |
| G37A C50G U54C | 3.08e-05 ± 2.2e-05 s⁻¹ |
| G37C C68G | 1.91e-05 ± 1.6e-05 s⁻¹ |
| G37U C50G | 3.33e-05 ± 1.7e-05 s⁻¹ |

Variants of: B1
Experiment: self-cleavage kobs at 40 uM GlcN6P; higher = faster cleavage; RNA array
Details: with glucosamine-6-phosphate
How it was run: as §1

| Variant | self-cleavage kobs at 40 uM GlcN6P |
| --- | --- |
| U31A C50G | 2.25e-05 ± 1.8e-05 s⁻¹ |
| U31G G38U A53G C68A C71A | 4.23e-05 ± 2.4e-05 s⁻¹ |
| U31G U65G | 2.01e-05 ± 1.2e-05 s⁻¹ |
| A33C C50G | 2.49e-05 ± 1.3e-05 s⁻¹ |
| C34A C50G | 3.09e-05 ± 1.7e-05 s⁻¹ |
| C34G U69G | 2.55e-05 ± 1.4e-05 s⁻¹ |
| A36C C70G | 2.39e-05 ± 1.3e-05 s⁻¹ |
| G37U C50G | 2.63e-05 ± 2e-05 s⁻¹ |

Variants of: B1
Experiment: self-cleavage kobs at 10000 uM GlcN6P; higher = faster cleavage; RNA array
Details: with glucosamine-6-phosphate
How it was run: as §1

| Variant | self-cleavage kobs at 10000 uM GlcN6P |
| --- | --- |
| U31A C50G | 1.7e-05 ± 1.4e-05 s⁻¹ |
| U31C C58U | 1.69e-05 ± 1.6e-05 s⁻¹ |
| U31C G44A | 2.09e-05 ± 1.3e-05 s⁻¹ |
| U31G G38U A53G C68A C71A | 2.69e-05 ± 2.1e-05 s⁻¹ |
| G32A U57C | 1.88e-05 ± 1.2e-05 s⁻¹ |
| C34A C50G | 1.7e-05 ± 1.4e-05 s⁻¹ |
| C34G U69G | 1.52e-05 ± 1.3e-05 s⁻¹ |
| C34U C50G | 0.00034 ± 0.0003 s⁻¹ |
| A36C C70G | 1.75e-05 ± 1e-05 s⁻¹ |

Variants of: B1
Experiment: self-cleavage kobs at 2500 uM GlcN6P; higher = faster cleavage; RNA array
Details: with glucosamine-6-phosphate
How it was run: as §1

| Variant | self-cleavage kobs at 2500 uM GlcN6P |
| --- | --- |
| U31G G38U A53G C68A C71A | 0.000448 ± 0.00029 s⁻¹ |
| G32C C70G | 1.81e-05 ± 1.5e-05 s⁻¹ |
| C34A C50G | 2.38e-05 ± 2.1e-05 s⁻¹ |
| A36C C70G | 0.000185 ± 0.00013 s⁻¹ |
| G37C C68G | 1.93e-05 ± 1.5e-05 s⁻¹ |
| G37C U55G | 1.22e-05 ± 8.8e-06 s⁻¹ |
| G37U C50G | 0.00214 ± 0.0014 s⁻¹ |
| G38A A52G C68G | 3.17e-05 ± 2.8e-05 s⁻¹ |

A second format for some results above:
G32C C70G
  self-cleavage kobs at 2500 uM GlcN6P = 1.81e-05 ± 1.5e-05 s⁻¹
C34A C50G
  self-cleavage kobs at 2500 uM GlcN6P = 2.38e-05 ± 2.1e-05 s⁻¹

Variants of: B1
Experiment: self-cleavage kobs at 160 uM GlcN6P; higher = faster cleavage; RNA array
Details: with glucosamine-6-phosphate
How it was run: as §1

| Variant | self-cleavage kobs at 160 uM GlcN6P |
| --- | --- |
| A33C C50G | 0.000511 ± 0.00033 s⁻¹ |
| A33G U69G | 0.000186 ± 0.00011 s⁻¹ |
| C34G G35U | 3.34e-05 ± 2.6e-05 s⁻¹ |
| C34G U69G | 3.49e-05 ± 2.4e-05 s⁻¹ |
| A36C C70G | 0.000162 ± 0.00011 s⁻¹ |
| G37A C50G U54C | 5.14e-05 ± 2.6e-05 s⁻¹ |
| G37C C68G | 2e-05 ± 1.7e-05 s⁻¹ |
